The list shows a part of the results, in another mix than the full data. For part of these data: At the low end of the ranking, values are background and their order means little. This is one part of the list. For part of these data: The source does not settle which construct or isoform was used.

Amino acid sequences for entries named in this document (tags omitted). A change or cut given only in a name is not applied to a line headed by its entry.
UniProt P32519: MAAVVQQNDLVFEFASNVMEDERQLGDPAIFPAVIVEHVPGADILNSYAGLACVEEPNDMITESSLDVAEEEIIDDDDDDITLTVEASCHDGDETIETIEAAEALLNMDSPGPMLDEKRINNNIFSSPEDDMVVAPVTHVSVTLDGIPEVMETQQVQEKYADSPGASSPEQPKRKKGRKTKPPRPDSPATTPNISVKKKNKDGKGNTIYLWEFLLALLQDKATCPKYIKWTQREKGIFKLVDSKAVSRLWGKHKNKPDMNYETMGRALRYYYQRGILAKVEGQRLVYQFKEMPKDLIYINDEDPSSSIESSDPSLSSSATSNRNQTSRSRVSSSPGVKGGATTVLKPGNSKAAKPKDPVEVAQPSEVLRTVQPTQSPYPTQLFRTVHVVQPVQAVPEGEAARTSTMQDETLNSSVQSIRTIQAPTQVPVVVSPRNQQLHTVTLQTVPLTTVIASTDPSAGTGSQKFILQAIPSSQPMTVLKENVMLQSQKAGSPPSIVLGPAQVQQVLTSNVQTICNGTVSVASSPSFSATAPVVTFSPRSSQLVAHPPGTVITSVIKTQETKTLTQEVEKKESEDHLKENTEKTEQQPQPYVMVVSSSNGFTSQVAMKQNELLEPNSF
UniProt P50549: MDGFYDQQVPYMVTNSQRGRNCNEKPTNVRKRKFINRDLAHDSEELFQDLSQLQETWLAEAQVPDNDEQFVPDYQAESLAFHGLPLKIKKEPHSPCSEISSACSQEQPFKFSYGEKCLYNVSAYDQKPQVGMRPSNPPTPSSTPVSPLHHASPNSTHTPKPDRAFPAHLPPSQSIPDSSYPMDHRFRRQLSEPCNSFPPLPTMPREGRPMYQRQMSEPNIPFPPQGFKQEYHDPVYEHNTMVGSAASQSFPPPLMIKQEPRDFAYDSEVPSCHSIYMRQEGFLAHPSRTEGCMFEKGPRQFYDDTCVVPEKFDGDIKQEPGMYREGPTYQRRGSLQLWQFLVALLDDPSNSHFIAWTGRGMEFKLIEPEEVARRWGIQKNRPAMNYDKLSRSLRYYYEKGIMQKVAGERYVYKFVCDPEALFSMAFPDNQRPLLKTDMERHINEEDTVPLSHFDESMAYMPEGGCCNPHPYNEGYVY

This note sets out measurements from publication PMC7862700.

What all share (assay): DAPPL (digital affinity profiling via proximity ligation, sequencing)
Holding throughout (details): 10 mM Tris-HCl pH 7.5, 50 mM NaCl, 1 mM DTT, 4% glycerol, room temperature, 30 min; GST-TFs on glutathione beads, 16-mer random dsDNA library, 0.1% …; high values mean tight binding; double strand, one strand shown; scale: fold enrichment (6-mer frequency, TF over GST control)

One assay deals with T1, ERG (UniProt P11308).
T1 sequence: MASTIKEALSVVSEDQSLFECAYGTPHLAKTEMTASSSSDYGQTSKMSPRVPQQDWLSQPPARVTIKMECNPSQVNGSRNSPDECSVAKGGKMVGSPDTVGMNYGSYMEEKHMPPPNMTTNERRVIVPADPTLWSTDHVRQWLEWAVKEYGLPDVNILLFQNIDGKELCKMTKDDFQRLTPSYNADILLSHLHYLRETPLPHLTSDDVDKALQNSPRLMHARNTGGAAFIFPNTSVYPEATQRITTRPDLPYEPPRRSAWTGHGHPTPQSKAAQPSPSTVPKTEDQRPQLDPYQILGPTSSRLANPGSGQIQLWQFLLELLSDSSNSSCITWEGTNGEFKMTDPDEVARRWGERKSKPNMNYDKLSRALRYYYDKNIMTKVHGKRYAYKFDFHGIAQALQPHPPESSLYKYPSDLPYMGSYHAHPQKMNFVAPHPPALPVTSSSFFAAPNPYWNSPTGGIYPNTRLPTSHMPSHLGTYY

The target in a further assay is ELF1 (UniProt P32519).
The target in another assay is T2, ELK4 (UniProt P28324-2).
T2 sequence: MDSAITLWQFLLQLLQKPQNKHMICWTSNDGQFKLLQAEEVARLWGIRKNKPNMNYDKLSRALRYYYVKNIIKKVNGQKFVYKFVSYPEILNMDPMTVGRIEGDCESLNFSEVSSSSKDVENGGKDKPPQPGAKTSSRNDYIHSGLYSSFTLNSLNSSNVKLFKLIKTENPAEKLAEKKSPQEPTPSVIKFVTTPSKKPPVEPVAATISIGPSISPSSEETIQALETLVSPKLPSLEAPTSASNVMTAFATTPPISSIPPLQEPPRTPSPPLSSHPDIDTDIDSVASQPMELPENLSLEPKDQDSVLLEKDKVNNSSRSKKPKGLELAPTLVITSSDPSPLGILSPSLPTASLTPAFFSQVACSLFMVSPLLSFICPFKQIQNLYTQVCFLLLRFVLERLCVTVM

In another assay the target is T3, ETV4 (UniProt P43268).
T3 sequence: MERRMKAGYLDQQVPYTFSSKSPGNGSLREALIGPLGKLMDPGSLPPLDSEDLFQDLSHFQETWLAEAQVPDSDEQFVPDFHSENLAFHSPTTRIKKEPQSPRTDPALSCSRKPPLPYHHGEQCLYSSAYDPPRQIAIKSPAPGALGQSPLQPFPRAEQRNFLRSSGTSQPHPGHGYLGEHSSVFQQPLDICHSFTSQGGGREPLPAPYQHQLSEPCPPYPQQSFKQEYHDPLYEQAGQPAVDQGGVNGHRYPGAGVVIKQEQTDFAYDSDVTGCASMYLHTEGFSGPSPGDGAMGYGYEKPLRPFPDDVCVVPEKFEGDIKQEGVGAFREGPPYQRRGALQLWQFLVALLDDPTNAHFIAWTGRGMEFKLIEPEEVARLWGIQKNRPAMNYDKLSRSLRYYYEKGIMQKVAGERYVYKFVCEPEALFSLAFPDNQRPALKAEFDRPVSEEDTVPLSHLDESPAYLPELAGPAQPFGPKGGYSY

Another assay concerns the target ETV1 (UniProt P50549).
The next assay concerns the target T4, ERF (UniProt P50548).
T4 sequence: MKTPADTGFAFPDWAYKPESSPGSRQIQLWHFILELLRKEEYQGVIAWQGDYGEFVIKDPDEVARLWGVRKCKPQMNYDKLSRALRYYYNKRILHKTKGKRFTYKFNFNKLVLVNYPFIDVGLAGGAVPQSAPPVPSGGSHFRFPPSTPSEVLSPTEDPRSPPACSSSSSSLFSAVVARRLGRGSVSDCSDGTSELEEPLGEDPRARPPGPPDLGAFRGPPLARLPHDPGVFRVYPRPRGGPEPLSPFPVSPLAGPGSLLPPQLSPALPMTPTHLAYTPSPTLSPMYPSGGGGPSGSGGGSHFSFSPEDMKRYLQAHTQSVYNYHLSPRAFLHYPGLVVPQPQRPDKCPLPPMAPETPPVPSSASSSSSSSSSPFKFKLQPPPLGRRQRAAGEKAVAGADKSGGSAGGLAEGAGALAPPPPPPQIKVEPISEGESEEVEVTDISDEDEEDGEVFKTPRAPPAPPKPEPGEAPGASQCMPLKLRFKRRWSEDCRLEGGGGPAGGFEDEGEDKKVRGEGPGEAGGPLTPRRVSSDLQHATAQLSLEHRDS

Turning to GCCGTG, the binding signal was found to be 0.241 in the assay with ERG; 0.221 with ELF1; 0.265 in the assay with ELK4; 0.242 with ETV4; 0.238 with ETV1; 0.253 in the assay with ERF.

As to AGAGTT, the binding signal with ERG stood at 0.761; with ELF1, 0.772; in the assay with ELK4, 0.718; with ETV4, 0.767; with ETV1, 0.804; in the assay with ERF, 0.773.

For the sequence GCCGGC, the binding signal in the assay with ERG came to 0.8; with ELF1, 0.75; with ELK4, 0.825; with ETV4, 0.844; with ETV1, 0.855; in the assay with ERF, 0.757.

Regarding TGGCGG, the binding signal was 0.748 with ERG; 0.779 with ELF1; 0.725 with ELK4; 0.85 with ETV4; 0.821 with ETV1; 0.756 with ERF.

As to GGAGCC, the binding signal worked out at 0.354 in the assay with ERG; 0.328 in the assay with ELF1; 0.34 with ELK4; 0.328 with ETV4; 0.313 with ETV1; 0.333 in the assay with ERF.

With CAAGAG, the binding signal was 0.728 with ERG; 0.818 with ELF1; 0.707 with ELK4; 0.75 with ETV4; 0.748 with ETV1; 0.806 with ERF.

Turning to GCCGTT, the binding signal in the assay with ERG is 0.769; in the assay with ELF1 it was 0.837; with ELK4, 0.765; in the assay with ETV4 it was 0.807; with ETV1, 0.829; with ERF, 0.845.

For CACGTC, the binding signal with ERG worked out at 0.907; in the assay with ELF1, 0.854; in the assay with ELK4, 0.806; with ETV4, 0.827; in the assay with ETV1, 0.875; in the assay with ERF it was 0.815.

Take CGCTGA: the binding signal in the assay with ERG was found to be 0.824; with ELF1, 0.896; with ELK4, 0.999; with ETV4, 0.834; with ETV1, 0.859; in the assay with ERF it was 0.824.

On to GTCAAC, for which the binding signal with ERG was determined as 0.869; with ELF1, 0.876; with ELK4, 0.945; with ETV4 it was 0.891; with ETV1, 0.925; in the assay with ERF, 0.962.

On to GAGGAG, for which the binding signal in the assay with ERG was found to be 0.235; with ELF1, 0.222; in the assay with ELK4, 0.193; in the assay with ETV4, 0.21; with ETV1, 0.21; with ERF, 0.231.

For the sequence GAGTTA, the binding signal is 0.558 with ERG; 0.585 in the assay with ELF1; 0.597 with ELK4; 0.619 with ETV4; 0.591 with ETV1; 0.592 with ERF.

Take GCGCGA: the binding signal was found to be 0.725 in the assay with ERG; 0.729 in the assay with ELF1; 0.846 in the assay with ELK4; 0.774 with ETV4; 0.756 in the assay with ETV1; 0.724 with ERF.

As to AGCGTT, the binding signal in the assay with ERG turned out to be 0.875; with ELF1, 0.939; with ELK4, 0.957; in the assay with ETV4 it was 0.842; with ETV1, 0.937; with ERF, 0.964.

For GATCGG, the binding signal was found to be 0.472 in the assay with ERG; 0.486 with ELF1; 0.489 with ELK4; 0.495 in the assay with ETV4; 0.455 with ETV1; 0.514 in the assay with ERF.

For the sequence AGTCGA, the binding signal with ERG is 0.442; with ELF1, 0.398; in the assay with ELK4 it was 0.369; with ETV4, 0.381; in the assay with ETV1 it was 0.444; in the assay with ERF, 0.459.

GAAGAG: the binding signal with ERG amounted to 0.898; in the assay with ELF1, 0.885; in the assay with ELK4 it was 0.805; with ETV4, 0.882; with ETV1, 0.94; with ERF, 0.913.

With GTAGTG, the binding signal with ERG is 0.714; with ELF1, 0.796; in the assay with ELK4, 0.82; with ETV4, 0.709; with ETV1, 0.828; in the assay with ERF it was 0.797.

Turning to CGGCAG, the binding signal was found to be 0.795 in the assay with ERG; 0.753 with ELF1; 0.881 in the assay with ELK4; 0.879 in the assay with ETV4; 0.831 with ETV1; 0.716 with ERF.

In the case of AGGGAG, the binding signal with ERG amounted to 0.372; with ELF1 it was 0.353; with ELK4, 0.347; in the assay with ETV4, 0.327; in the assay with ETV1, 0.345; with ERF, 0.316.

On to GGATTG, for which the binding signal was 0.817 with ERG; 0.778 in the assay with ELF1; 0.802 with ELK4; 0.781 in the assay with ETV4; 0.867 with ETV1; 0.83 with ERF.

On to CGGTCA, for which the binding signal with ERG came out at 0.826; with ELF1, 0.811; with ELK4 it was 0.767; in the assay with ETV4, 0.828; with ETV1 it was 0.826; with ERF, 0.806.

With CGTGCC, the binding signal with ERG came to 0.971; in the assay with ELF1, 0.812; with ELK4 it was 0.971; with ETV4, 0.834; with ETV1, 0.846; in the assay with ERF, 0.866.

Turning to AGCGGA, the binding signal with ERG amounted to 0.82; in the assay with ELF1, 0.715; with ELK4, 0.671; with ETV4 it was 0.782; with ETV1, 0.792; with ERF, 0.744.

GACCAG: the binding signal turned out to be 0.615 with ERG; 0.674 in the assay with ELF1; 0.564 with ELK4; 0.63 with ETV4; 0.618 with ETV1; 0.634 with ERF.

Regarding TGCCGT, the binding signal in the assay with ERG is 0.788; with ELF1, 0.921; with ELK4, 0.89; with ETV4, 0.875; with ETV1, 0.803; with ERF it was 0.747.

On to CGTCAG, for which the binding signal with ERG stood at 0.854; in the assay with ELF1, 0.854; in the assay with ELK4, 0.907; in the assay with ETV4, 0.908; with ETV1, 0.879; in the assay with ERF, 0.783.
